PubChem BioAssay AID1671195 | Yale University – 2021

Purpose: 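Knockdowns that increase or decrease uptake of fluorescent LDL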 (primary screen)
Cell system: human Huh7 hepatoma cells
Reagents: siRNA pool against human genes, 18 nM
Timing: about 2 to 2.5 days of knockdown, then 8 h LDL uptake
Treatment: DiI-labelled LDL at 30 µg/ml for 8 h, in lipoprotein-deficient serum medium
Measured: 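Per-cell DiI-LDL intensity by automated imaging; well means scaled to the plate median and given as a robust z-score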
Scale: robust z-score: higher = more LDL uptake after knockdown
Rule for the call: 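Active when two or more replicates show a robust z-score above 2 or below -2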
Here is an unselected part of about 22,000 deposited reagents. In the full data, about 1,510 (6.9%) were called active. 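Active includes knockdowns raising or lowering LDL uptake; positive z-scores mean more uptake, negative mean less.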 The numbers tell different reagents against one gene apart.

robust z-score, replicate 1	robust z-score, replicate 2	robust z-score, replicate 3	Call	Target gene	pool no.
-0.518	-0.521	-0.897	inactive	SLC20A1-DT	1
0.94	0.461	0.715	inactive	LOC100233156	1
-0.363	-0.134	0.0217	inactive	AGPAT4-IT1	1
1.18	1.66	1.46	inactive	NHS	1
2.79	1.19	-1.28	inactive	MRPL2	1
-0.626	-0.824	-1.12	inactive	CHST6	1
2.5	2.24	3.42	active	MSH5	1
0.602	1.06	0.411	inactive	UQCC2	1
-0.176	-0.417	-0.496	inactive	KGD4	1
-2.02	-1.98	-1.71	active	RPL5P11	1
1.26	1.37	1.14	inactive	LOC441127 (retired record)	1
0.963	0.356	0.837	inactive	YWHAE	1
1.38	1.48	1.29	inactive	SLC38A1	1
0.488	0.712	0.296	inactive	CMC1	1
-0.923	-0.642	-0.707	inactive	GPC5	1
-0.542	-0.437	0.0446	inactive	LOC389702 (retired record)	1
-0.71	-0.644	-0.751	inactive	FEN1	1
-0.839	-0.327	-0.247	inactive	ZNF503-AS1	1
-0.245	-1.43	-1.01	inactive	TXLNB	1
-0.689	-1.3	-1.26	inactive	LOC391542 (retired record)	1
0.4	-0.21	0.193	inactive	IL21R	1
-1.26	-1.38	-1.36	inactive	PLEKHA4	1
-0.0504	0.0949	-0.158	inactive	PIKFYVE	1
1.64	0.687	1.28	inactive	GAMT	1
0.776	0.856	0.704	inactive	LINC00668	1
1.13	-0.969	1.26	inactive	WAPL	1
-0.644	-0.107	0.314	inactive	PRR14	1
-0.491	-0.598	-0.106	inactive	LOC441667 (retired record)	1
-0.363	0.858	1.42	inactive	CADM3	1
-0.533	-0.279	0.0536	inactive	SMOX	1
-1.25	-1.37	-1.33	inactive	LOC391062 (retired record)	1
0.57	0.902	0.97	inactive	PCDHGB1	1

Entries above marked active:
robust z-score, replicate 1	robust z-score, replicate 2	robust z-score, replicate 3	Call	Target gene	pool no.
2.5	2.24	3.42	active	MSH5	1
-2.02	-1.98	-1.71	active	RPL5P11	1

Next reagents follow:
robust z-score, replicate 1	robust z-score, replicate 2	robust z-score, replicate 3	Call	Target gene	pool no.
-0.233	0.779	0.348	inactive	FCER1G	1
-0.81	-0.352	0.231	inactive	C2CD3	1
-0.844	-0.603	-0.6	inactive	MYBPHL	1
0.709	0.443	1.61	inactive	CHAC1	1
0.122	-0.123	-0.186	inactive	LOC389442 (retired record)	1
-0.0792	-0.394	-0.428	inactive	GRHL2	1
-1.23	-1.38	-1	inactive	RBM4B	1
-1.63	-1.3	-1.35	inactive	FCGR2B	1
-1.43	-0.875	-0.21	inactive	TRIM52	1
0.99	0.504	0.149	inactive	SLC22A24	1
-0.498	-0.377	-0.676	inactive	LGALS3	1
0.531	-0.24	-0.466	inactive	PLCG1	1
-2.13	-2.3	-2.24	active	ASB2	1
-0.479	1.08	-0.728	inactive	CLRN1	1
-2.25	-2.65	-2.42	active	TMEM170A	1
0.487	0.273	0.268	inactive	LINC02911	1
-1.02	-1.07	-0.925	inactive	CLCA1	1
-0.832	-0.988	-0.323	inactive	KCTD9	1
0.376	-0.451	0.843	inactive	ANO1	1
0.45	-1.5	-1.3	inactive	PDCL	1
-0.151	-1.14	-0.646	inactive	TMEM129	1
-0.229	0.933	0.496	inactive	CTNNAL1	1
0.012	0.549	-0.892	inactive	MAD1L1	1
0.393	0.401	0.2	inactive	UNC5A	1
0.733	0.559	0.463	inactive	LOC442513 (retired record)	1
1.01	1.86	0.867	inactive	ZNF225	1
-0.166	0.205	-0.251	inactive	KAZN	1
-0.194	-0.789	0.461	inactive	KAZN	2
2.55	1.66	-1.25	inactive	SSUH2	1
-1.12	-1.51	-1.27	inactive	INO80B	1
2.85	1.02	1.4	inactive	COL4A1	1
2.17	1.81	1.57	inactive	ECEL1	1
-0.638	-0.987	-0.956	inactive	CALM1	1
-1.69	-0.662	-1.65	inactive	DOCK3	1
-1.62	-0.892	0.353	inactive	RPS3	1
1.29	-0.38	0.0995	inactive	ARL2	1
0.789	0.613	1.2	inactive	ERMP1	1
0.726	1.3	0.764	inactive	TMPRSS13	1
-0.191	0.529	0.345	inactive	LOC388283 (retired record)	1
-0.314	-0.621	-0.307	inactive	GM2A	1
-0.0306	-0.167	-0.0845	inactive	LOC388755 (retired record)	1
-0.127	-0.0742	-0.12	inactive	MPI	1
-0.2	-0.328	0.266	inactive	RHOQ	1
-0.729	1.25	1.06	inactive	LOC392556 (retired record)	1
1.98	2.36	1.26	active	HSD17B6	1
1.76	0.562	0.903	inactive	SYTL2	1
-0.752	-0.971	-1.06	inactive	LOC441335 (retired record)	1
1.52	0.893	1.72	inactive	OR4A5	1
2.13	2.11	1.83	active	PKD1L1-AS1	1
0.977	0.685	0.639	inactive	ZNF2	1
0.993	2.64	0.98	inactive	DKK1	1
0.221	0.732	0.295	inactive	SLC6A19	1
-0.439	-1.09	-0.44	inactive	EPHX3	1
1.04	-1.25	0.477	inactive	MESP1	1
-1.03	-1.06	-1.53	inactive	BANF1	1
